In PMC3750171:
Results are given in words; binding and its absence hold for the method and conditions named. Binding calls can cover weak binding; strength is not graded here.

Molecular target: HCV non-structural 5A (NS5A) protein, bait of the SH3 phage-display screen (hepatitis C virus (genotype not stated for this experiment))
Assay: phage display screen; phage-display library expressing the entire complement of human SH3 domains screened for NS5A interacting partners; no further details given

B1: SH3 domain of mixed lineage kinase 3 (MLK3), displayed on phage (domain or fragment, UniProt Q16584 41-105)
chain: YANPVWTALFDYEPSGQDELALRKGDRVEVLSRDAAISGDEGWWAGQVGGQVGIFPSNYVSRGGG
With B1 as the binder, how does the binding read?
The binding was “binds”.
